For the experiment, the target named is C-terminal domain of the growth hormone secretagogue (ghrelin) receptor type 1a (GHSR-Cter, 339–366) (human) (UniProt Q92847). The experiment can be described thus: SEC-MALS; Superdex 75 10/300 GL, 25 °C, 50 mM BisTris pH 6.7, 50 mM NaCl, 1 mM TCEP, 0.5 mM EDTA; 40 µL injected at 0.5 mL/min; samples at 1.5 mM (V2R-Cter), 0.6 mM (GHSR-Cter), 0.7 mM (β2AR-Cter); both purified.

For 1 molecule, binding results are on record in article PMC9138321.

Results are given in words; binding and its absence hold for the method and conditions named. Sequences can lack the tags named with a protein.

In the case of GFEPFSQRKLSTLKDESSRAWTESSINT (domain or fragment, UniProt Q92847 339-366) [C-terminal domain of the growth hormone secretagogue (ghrelin) receptor type 1a (GHSR-Cter, 339–366)], the binding result is recorded as “no binding (tested: 0.6 mM)”.
